Experimental data taken from publication PMC12686931.
Where two headings read alike, the source gives them in different places. Results are given in words; binding and its absence hold for the method and conditions named. In cells and extracts the contact can be indirect. Some results given as binding are weak or reduced against the parent protein; the word gives no strength.

Amino acid sequences for entries named in this document (tags omitted).
UniProt Q62167: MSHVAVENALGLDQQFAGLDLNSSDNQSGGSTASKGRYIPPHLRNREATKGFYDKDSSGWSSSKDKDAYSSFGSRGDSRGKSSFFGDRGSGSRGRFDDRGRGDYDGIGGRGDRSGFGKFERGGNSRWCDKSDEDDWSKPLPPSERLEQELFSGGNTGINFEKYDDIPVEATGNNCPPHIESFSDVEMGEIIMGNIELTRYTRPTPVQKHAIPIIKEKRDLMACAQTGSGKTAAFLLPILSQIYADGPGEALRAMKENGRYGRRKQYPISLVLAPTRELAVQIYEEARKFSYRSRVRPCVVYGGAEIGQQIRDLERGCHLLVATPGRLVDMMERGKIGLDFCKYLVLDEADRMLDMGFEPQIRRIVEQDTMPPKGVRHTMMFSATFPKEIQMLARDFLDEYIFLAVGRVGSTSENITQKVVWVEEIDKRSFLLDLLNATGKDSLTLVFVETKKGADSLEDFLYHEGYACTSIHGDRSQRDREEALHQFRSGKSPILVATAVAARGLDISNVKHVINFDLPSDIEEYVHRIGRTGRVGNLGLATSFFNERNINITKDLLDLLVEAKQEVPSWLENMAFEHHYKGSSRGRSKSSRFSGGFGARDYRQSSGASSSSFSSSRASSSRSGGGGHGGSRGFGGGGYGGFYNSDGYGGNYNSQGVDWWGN
UniProt O00571: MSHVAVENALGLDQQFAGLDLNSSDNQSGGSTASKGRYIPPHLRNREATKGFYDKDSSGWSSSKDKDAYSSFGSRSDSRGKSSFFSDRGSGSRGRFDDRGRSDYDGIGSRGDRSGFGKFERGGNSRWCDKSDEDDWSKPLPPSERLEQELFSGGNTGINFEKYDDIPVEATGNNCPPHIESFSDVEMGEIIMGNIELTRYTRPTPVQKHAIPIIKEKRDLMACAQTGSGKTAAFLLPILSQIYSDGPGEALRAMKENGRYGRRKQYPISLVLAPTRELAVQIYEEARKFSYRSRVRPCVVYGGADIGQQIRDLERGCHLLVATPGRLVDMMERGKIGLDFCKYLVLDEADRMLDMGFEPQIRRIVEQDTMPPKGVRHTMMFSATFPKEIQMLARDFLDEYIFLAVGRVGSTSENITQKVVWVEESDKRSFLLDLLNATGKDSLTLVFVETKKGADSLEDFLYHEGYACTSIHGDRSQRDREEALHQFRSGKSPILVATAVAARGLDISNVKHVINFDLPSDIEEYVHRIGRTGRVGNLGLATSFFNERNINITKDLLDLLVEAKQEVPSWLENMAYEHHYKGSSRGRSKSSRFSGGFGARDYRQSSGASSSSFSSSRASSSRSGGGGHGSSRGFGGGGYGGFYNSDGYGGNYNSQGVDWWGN
UniProt Q9JMK2: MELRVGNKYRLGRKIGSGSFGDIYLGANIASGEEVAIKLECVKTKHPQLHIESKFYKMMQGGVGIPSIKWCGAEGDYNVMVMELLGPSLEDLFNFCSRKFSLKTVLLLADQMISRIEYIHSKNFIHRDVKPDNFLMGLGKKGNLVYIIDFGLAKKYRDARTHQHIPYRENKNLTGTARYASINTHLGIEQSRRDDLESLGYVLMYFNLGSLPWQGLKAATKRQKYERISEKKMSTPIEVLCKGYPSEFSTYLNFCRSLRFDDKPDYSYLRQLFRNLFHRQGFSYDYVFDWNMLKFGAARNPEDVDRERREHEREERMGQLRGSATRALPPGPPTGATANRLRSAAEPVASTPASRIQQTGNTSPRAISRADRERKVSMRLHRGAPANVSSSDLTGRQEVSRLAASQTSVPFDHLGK

Columns and labels:
Test in all cases: co-IP; endogenous proteins in MDA-MB-231 and 4T1 lysates; primary antibodies coupled to protein A/G beads, overnight at 4 °C, immunoblot; for DDX3X-CK1ε control and ZMYND8-knockout cells
[1] = target: T1, Zinc finger MYND-type containing 8 (ZMYND8), endogenous, human (human (endogenous in MDA-MB-231)) (UniProt Q9ULU4)
T1 sequence: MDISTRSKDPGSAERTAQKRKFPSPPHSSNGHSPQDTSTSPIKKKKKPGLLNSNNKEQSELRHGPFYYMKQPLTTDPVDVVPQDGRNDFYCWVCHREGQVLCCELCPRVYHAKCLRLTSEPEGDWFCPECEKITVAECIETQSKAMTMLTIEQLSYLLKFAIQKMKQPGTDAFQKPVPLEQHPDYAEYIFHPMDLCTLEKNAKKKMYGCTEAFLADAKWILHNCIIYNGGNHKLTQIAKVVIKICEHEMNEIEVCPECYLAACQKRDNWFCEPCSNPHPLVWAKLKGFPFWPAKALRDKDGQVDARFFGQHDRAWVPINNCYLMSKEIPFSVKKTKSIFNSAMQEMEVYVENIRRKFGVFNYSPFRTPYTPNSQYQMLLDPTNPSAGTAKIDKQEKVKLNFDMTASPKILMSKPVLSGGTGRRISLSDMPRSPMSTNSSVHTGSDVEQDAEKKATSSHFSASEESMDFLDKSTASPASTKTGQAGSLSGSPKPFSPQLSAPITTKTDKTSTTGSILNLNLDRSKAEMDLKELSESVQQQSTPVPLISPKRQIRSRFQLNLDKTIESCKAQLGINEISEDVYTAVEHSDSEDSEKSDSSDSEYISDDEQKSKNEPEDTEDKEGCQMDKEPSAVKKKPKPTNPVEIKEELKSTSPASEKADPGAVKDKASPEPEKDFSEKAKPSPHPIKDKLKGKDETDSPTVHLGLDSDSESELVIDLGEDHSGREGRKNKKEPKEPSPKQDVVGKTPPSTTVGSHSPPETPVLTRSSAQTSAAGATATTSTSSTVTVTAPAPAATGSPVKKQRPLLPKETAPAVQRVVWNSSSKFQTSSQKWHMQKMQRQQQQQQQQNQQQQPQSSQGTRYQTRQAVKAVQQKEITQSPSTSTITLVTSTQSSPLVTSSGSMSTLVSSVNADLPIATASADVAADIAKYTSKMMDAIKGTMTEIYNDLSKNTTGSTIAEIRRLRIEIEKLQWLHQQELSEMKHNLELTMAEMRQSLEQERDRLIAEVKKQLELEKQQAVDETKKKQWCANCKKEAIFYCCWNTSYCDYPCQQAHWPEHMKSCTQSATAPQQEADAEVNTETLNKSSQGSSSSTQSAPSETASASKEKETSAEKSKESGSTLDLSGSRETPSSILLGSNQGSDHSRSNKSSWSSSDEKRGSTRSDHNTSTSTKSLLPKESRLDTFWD

[2] = target: T2, Zinc finger MYND-type containing 8 (ZMYND8), endogenous, mouse (mouse (endogenous in 4T1)) (UniProt A2A484)
T2 sequence: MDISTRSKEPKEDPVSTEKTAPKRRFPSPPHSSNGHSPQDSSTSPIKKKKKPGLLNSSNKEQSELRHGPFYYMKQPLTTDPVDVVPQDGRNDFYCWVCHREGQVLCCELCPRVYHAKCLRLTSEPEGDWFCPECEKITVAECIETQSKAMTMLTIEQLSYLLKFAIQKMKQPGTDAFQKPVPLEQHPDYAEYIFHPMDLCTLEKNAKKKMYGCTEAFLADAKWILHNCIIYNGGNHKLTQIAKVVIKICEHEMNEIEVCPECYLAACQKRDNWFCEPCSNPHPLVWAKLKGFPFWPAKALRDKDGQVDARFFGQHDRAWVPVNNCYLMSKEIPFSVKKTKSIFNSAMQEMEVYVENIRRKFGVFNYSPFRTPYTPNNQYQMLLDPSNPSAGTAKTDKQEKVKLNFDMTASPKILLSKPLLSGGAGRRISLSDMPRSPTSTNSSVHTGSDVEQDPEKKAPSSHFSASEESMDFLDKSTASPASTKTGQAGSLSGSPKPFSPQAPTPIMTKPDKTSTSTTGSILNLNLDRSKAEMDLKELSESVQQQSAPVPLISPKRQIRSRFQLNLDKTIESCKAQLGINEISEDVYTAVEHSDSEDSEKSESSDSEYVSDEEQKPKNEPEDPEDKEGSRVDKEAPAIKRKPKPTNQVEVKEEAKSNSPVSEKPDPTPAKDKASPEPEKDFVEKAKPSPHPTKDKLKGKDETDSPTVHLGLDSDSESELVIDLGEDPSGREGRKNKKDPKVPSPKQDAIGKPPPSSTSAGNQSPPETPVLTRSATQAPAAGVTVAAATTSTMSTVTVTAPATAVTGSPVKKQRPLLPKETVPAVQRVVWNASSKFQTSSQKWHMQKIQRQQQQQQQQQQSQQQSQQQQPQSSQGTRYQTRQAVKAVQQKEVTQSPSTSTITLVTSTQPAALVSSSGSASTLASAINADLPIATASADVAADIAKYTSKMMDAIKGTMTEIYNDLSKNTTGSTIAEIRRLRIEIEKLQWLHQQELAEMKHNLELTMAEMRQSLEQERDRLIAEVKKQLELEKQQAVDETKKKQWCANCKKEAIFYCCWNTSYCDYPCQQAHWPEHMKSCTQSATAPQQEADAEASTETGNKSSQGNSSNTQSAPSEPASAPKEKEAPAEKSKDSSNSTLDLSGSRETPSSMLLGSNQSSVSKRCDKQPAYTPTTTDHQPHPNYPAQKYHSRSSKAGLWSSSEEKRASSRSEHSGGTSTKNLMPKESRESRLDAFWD

[3] = target: DEAD-box helicase 3 X-linked (DDX3X), endogenous, mouse (mouse (endogenous in 4T1)) (UniProt Q62167)
[4] = target: T2, Zinc finger MYND-type containing 8 (ZMYND8), endogenous, mouse (mouse (endogenous in 4T1)); remark: listed apart in the source

Molecule: DEAD-box helicase 3 X-linked (DDX3X), endogenous, human (from UniProt O00571 1-662)
- binding [1]: binds

Molecule: DEAD-box helicase 3 X-linked (DDX3X), endogenous, mouse (from UniProt Q62167 1-662)
- binding [2]: binds

Molecule: Casein kinase 1 epsilon (CK1ε), endogenous, mouse (from UniProt Q9JMK2 1-416) (enzyme)
- binding [3]: binds

B1: OTU domain-containing protein 4 (OTUD4), endogenous, mouse (enzyme, UniProt B2RRE7 1-1107)
chain: MEAAVGAPDGVDQGGVGPLEDETPMDAYLRKLGLYRKLVAKDGSCLFRAVAEQVLHSQSRHVEVRMACIRYLRENREKFEAFIEGSFEEYLKRLENPQEWVGQVEISALSLMYRKDFVIYQEPNVSPSHVTENNFPEKVLLCFSNGNHYDIVYPITYKDSSAMCQSLLYELLYEKVFKTDVSKIMMGLEASEVAEESNSEISDSEDDSCKSKSTAATDVNGFKPSGSENPKNNGNSADLPLSRKVLKSLNPAVYRNVEYEIWLKSKQAQQKRDYSIAAGLQYEVGDKCHQVRLDHNGKLSNADIHGVHSENGLVLSEELGKKHTPKNLKPPPPESWNTVSGKKMKKPNSGQNFHSDTDYRGPKNLNKPIKAPSALPPRLQHPSSGVRQHAFSSHSTGSQSQKSSSEHKNLSRMPSQITRKPDRERAEDFDHVSRESYYFGLSPEERREKQAIEESRLLYEIQNRDEQAFPALSSSSVSQSPSQNSNACVPRKSSHARDRKGSMRRADAEERKDKDSLRGHTHVDKKPEPSTLEISDDKCTRVSSPSKSKKECPSPVEQKPAEHIPLSNPAPLLVSPEVHLTPAVPSLPATVPAWPSEPTTFGPTGVPAQIPILSVTQTTGPDAAVSQAHLTPSPVPVSIQAVNQPLMPLPQTMSLYQDPLYPGFPCSEKGDRAIAPPYSLCQTGEDLPKDKNILRFFFNLGVKAYSCPMWAPHSYLYPLHQAYMAACRMYPKVPVPVYPQNTWFQEAPPAQSESDCPCTDAHYSLHPEASVNGQMPQAEMGPPAFASPLVIPPSQVSEGHGQLSYQPELESENPGQLLHAEYEESLSGKNMYPQQSFGPNPFLGPVPIAPPFFPHVWYGYPFQGFVENPVMRQNIVLPPDDKGELDLPLENLDLSKECDSVSAVDEFPDARVEGAHSLSAASVSSKHEGRVEQSSQTRKADIDLASGSSAVEGKGHPPTQILNREREPGSAEPEPKRTIQSLKEKPEKVKDPKTAADVVSPGANSVDRLQRPKEESSEDENEVSNILRSGRSKQFYNQTYGSRKYKSDWGSSGRGGYQHVRGEESWKGQPNRSRDEGYQYHRHVRGRPYRGDRRRSGMGDGHRGQHT
- binding [4]: binds
